Assay results taken from paper PMC4930906 (The Korean Journal of Physiology & Pharmacology : Official …, 2016).

Key:
TREK-2 = molecular target: T1, TREK-2 (Rattus norvegicus, UniProt Q9JIS4); assay: whole-cell patch clamp, HEK293, voltage ramp, current at +[…] mV; assay type: cell-based
T1 sequence (Q9JIS4 1-538): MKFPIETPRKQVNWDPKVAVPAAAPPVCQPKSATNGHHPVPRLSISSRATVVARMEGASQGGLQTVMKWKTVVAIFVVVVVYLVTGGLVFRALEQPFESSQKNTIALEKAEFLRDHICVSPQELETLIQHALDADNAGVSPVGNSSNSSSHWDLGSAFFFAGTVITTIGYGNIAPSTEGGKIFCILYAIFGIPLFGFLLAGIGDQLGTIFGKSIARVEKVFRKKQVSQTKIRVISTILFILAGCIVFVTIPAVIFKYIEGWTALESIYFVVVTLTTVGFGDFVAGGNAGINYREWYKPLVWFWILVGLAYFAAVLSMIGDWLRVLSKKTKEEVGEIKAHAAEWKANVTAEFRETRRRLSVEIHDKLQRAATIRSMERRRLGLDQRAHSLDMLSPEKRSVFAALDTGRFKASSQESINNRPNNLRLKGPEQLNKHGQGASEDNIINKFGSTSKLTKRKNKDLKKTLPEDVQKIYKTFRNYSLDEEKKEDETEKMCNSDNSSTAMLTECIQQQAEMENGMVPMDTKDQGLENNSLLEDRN

TRESK = molecular target: T2, TRESK (Mus musculus, UniProt Q6VV64); assay: as above; assay type: cell-based
T2 sequence (Q6VV64 1-394): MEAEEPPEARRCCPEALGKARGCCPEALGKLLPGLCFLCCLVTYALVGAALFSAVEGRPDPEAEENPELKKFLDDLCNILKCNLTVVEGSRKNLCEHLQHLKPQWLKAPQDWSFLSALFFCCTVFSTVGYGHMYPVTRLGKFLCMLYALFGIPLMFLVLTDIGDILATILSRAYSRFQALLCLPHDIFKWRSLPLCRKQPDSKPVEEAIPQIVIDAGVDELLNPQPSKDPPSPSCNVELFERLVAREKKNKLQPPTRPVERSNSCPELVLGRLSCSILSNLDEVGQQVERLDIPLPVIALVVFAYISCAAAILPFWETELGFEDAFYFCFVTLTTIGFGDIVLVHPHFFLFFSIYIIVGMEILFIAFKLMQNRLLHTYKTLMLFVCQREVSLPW

- IC50 (TREK-2): 31 ± 7 µM
- IC50 (TRESK): 17 ± 5 µM
SMILES: CNCCC(Oc1ccc(C(F)(F)F)cc1)c1ccccc1 (centres unmarked) [fluoxetine]
